The structures given here were assigned with low confidence; some may be wrong.
What was measured:
ACE (Sigma, A2580) = ACE (Sigma, A2580) (Sus scrofa, UniProt F1RRW5); assay: ACE enzymatic activity assay; settings: read-out: ACE Activity; Ki class; compounds tested in 5% DMSO, 12 concentrations; tested form: 0.2 HCl
Carboxypeptidase A = Carboxypeptidase A (Bos taurus, UniProt P00730); assay: Carboxypeptidase A activity assay; settings: read-out: Carboxypeptidase A Activity; Ki class; compounds tested in 5% DMSO, 12 concentrations; tested form: 0.2 HCl

Protein sequences, listed by entry. Tags and fused reporters are not part of them. Residues count along the entry.
UniProt F1RRW5, 34-1309 limits assumed: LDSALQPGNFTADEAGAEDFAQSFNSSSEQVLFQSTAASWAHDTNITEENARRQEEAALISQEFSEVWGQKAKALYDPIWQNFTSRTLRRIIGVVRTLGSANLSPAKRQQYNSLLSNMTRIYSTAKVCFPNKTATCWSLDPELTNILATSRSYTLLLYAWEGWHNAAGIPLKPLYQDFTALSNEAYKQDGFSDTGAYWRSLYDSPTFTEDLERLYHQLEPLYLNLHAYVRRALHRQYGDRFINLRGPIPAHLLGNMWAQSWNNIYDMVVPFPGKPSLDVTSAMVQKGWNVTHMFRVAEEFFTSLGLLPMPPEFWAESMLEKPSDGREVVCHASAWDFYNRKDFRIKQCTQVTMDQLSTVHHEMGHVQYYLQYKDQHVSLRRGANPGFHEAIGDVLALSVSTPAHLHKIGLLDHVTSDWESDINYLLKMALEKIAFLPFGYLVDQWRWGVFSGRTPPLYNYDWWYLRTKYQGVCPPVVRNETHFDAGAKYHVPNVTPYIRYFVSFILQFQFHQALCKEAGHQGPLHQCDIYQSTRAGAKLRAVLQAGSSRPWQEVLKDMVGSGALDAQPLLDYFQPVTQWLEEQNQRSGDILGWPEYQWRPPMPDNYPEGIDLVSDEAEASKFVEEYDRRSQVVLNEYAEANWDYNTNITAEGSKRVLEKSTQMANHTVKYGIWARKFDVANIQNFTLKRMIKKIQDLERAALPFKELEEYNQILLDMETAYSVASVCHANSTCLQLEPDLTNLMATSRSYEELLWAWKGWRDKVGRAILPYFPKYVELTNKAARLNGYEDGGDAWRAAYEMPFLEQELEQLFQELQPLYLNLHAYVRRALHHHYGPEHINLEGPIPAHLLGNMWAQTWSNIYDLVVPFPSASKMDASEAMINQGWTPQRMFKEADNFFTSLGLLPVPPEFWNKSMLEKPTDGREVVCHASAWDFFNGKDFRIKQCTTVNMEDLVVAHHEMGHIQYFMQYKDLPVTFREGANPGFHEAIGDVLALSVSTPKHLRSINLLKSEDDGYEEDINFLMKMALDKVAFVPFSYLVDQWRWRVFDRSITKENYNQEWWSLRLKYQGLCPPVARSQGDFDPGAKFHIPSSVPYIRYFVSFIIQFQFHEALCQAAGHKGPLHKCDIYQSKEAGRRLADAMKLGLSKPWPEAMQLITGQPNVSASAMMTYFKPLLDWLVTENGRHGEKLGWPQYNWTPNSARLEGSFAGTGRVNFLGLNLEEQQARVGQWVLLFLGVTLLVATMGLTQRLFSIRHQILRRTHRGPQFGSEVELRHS
UniProt P00730, 111-419 limits assumed: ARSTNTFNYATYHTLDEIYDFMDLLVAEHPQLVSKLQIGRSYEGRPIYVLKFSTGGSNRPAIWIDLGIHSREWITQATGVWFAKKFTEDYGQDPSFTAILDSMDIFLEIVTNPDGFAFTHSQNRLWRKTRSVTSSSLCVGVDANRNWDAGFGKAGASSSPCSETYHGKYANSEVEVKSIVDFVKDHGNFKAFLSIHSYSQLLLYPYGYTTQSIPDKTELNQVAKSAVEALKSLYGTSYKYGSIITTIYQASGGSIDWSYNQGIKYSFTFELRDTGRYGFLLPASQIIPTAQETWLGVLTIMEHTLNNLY

- Ki (ACE (Sigma, A2580)): > 50 µM
- Ki (Carboxypeptidase A): > 50 µM
Compound: CCC(C)C(N[C@H](CCc1ccccc1)C(=O)O)C(=O)O (some centres unmarked)
